# PubChem BioAssay AID1508600 (Functional Genomics Laboratory (NCATS/FGL), 2020)
# The campaign covered roughly 53,000 sequences. About 3,700 (7%) were called active.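 Rule for the calls: active = gene knockdowns whose robust z-score for IL-1 alpha signal is at least 2 or at most -2, so actives lie on both sides; inactive = the rest.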 Some of the results follow.
# Test: Components of the Cytosolic LPS Sensing Pathway: Gene Identification via Genome-wide siRNA Screen;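 note: robust z of the log signal after scaling to non-targeting control siRNA wells of the plate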
# Details: RAW264.7 macrophages, IL-1a HTRF, actives lie on both sides, screened at 100 nM (by protocol), cells primed 5 h with Pam3CSK4 first
# Method in brief: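 Knockdown: 100 nM siRNA, 48h, RAW264.7. Stimulation: Pam3CSK4 5 h, then LipidA via TransIT-TKO 24 h. Output: supernatant IL-1a HTRF, negative-control-normalized, log robust z-score; viability by CellTiter-Glo.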
row,Sequence,z-score
1,GGAGAUGAUGAUUUACAAATT against Spred1,inactive: 0.723
2,GGAGAUGGGUGUCUUGGAGTT against Myo5c,inactive: 0.587
3,GGAUACAGUCAGACUCUUGTT against Blmh,inactive: -0.187
4,GAUUUUCCUCUACUGUCCUTT against U90926,inactive: -0.532
5,GGUUCUGAGGACAUGUGCATT against Asb18,inactive: 0.603
6,GGUCAUUCACGUCUGCGUUTT against Kcnj8,inactive: -0.292
7,GGUGAAGUACAGAAUAUGCTT against Sycp3,inactive: 0.0795
8,GGGACUCUUCUACGAGUUUTT against Lims2,inactive: 0.836
9,GCCGUUAAACAGUUCUCCCTT against Cyb561a3,inactive: -0.455
10,GGAGAAAUACAACUGAAAATT against Pcdhb7,inactive: -0.0269
11,CGGGUUUCAUUAUUAUUCCTT against Foxa1,inactive: -0.352
12,GGUUUUUGCCAAACUCUUUTT against Wbp1l,inactive: 1.54
13,GGUGCAGAAUCUCUCAUUGTT against Mrpl30,active: -2.14
14,GGCCGAACCUGUCAAAGAATT against Hif3a,inactive: 0.615
15,AUGGAUAGGGAUUAAGAGCTT against Scn4b,inactive: 1
16,GCUGUGGAGUCAAGAACAGTT against Zfp317,inactive: -0.31
17,GAGACAGAUAGGCAGAAAATT against Olfr478,inactive: -1.02
18,GCUUCCUAACCAGGUUUGATT against 4430402I18Rik,active: 2.1
19,GGAGGAGAGGUACAAACGGTT against Cxxc1,inactive: -1.04
20,GGCUUACAUACUUGAAUUGTT against 9430015G10Rik,inactive: 0.873
21,GGAGGUCUGUGCUUACUUGTT against Fnbp4,inactive: 1.72
22,CCAAUUGAAACUCUUUUCCTT against Thada,inactive: 0.562
23,GGCAAAAACCAUAAACUAGTT against Clcn4,inactive: -0.27

# Random excerpt: five entries already listed
row,Sequence,z-score
12,GGUUUUUGCCAAACUCUUUTT against Wbp1l,inactive: 1.54
13,GGUGCAGAAUCUCUCAUUGTT against Mrpl30,active: -2.14
7,GGUGAAGUACAGAAUAUGCTT against Sycp3,inactive: 0.0795
19,GGAGGAGAGGUACAAACGGTT against Cxxc1,inactive: -1.04
18,GCUUCCUAACCAGGUUUGATT against 4430402I18Rik,active: 2.1

# Remaining list, next part:

row,Sequence,z-score
1,GGGCGGUUCAAAAGGUCAGTT against Cacnb1,active: 2.27
2,GGCCUCAGUUGGACUUGAATT against Scn10a,inactive: -0.352
3,GGAAAAAAAAGACCUAGGATT against Pik3ip1,inactive: -0.475
4,GCUUUAUCACCGAUGUCGATT against Slc29a4,inactive: -0.782
5,CGAUGGCCUGAAUCACUUGTT against Hbb-b1,inactive: -0.122
6,GGCUAUCAUGAACUUGGAUTT against Gpd2,inactive: -0.57
7,GGGAUUUGGUUUCGUAACUTT against Rbfox1,inactive: -1.08
8,GGGCUACAUAGGCUUAGACTT against Ptpru,inactive: 0.064
9,GGACACACAUCAUUGCCCATT against Olfr649,inactive: -1.65
10,GGAGGAGCUAUACAAAGCCTT against Rab3il1,inactive: -0.918
11,GGUUAAGAGCGUACGUUUUTT against Tmem204,inactive: 1.46
12,GGACAUUAAAAGUCUCUUATT against Kbtbd3,inactive: 0.292
13,GGUAAAGAUCGACCUUUUGTT against Stx8,inactive: -0.108
14,CGUGAUUUCAGUGAGGGUGTT against Tarsl2,inactive: 0.996
15,GCCCUAGUGUCUGAAAAAATT against Sfrp5,inactive: 0.864
16,GGAAAAAUGACUUUUUGUGTT against Zfp799,inactive: 0.249
17,UCGAGGAGUAGUAGCUUAATT against Acsl5,inactive: -0.537
18,GCAGCAUGGCAAAACCACATT against Zbtb12,inactive: -0.265
19,GGUUUCCACCAAACAAAACTT against Bmp3,inactive: 0.513
20,GCAAGUGGCUGAGUACUAATT against R74862,inactive: 1.05
21,CCAACACUACCAGAGAACGTT against Pfkfb1,inactive: -0.808
22,GGUGGAGACUGUGUCUAGUTT against Agbl5,inactive: 1.17
23,GGCUUAUUGUAGAAAAUCUTT against Srsf6,inactive: 0.103

row,Sequence,z-score
1,CGGUAGCCAUAUUAAUAUCTT against Spink2,inactive: 0.417
2,GCCUCUUCGAACUCACUAUTT against St6galnac3,inactive: -0.807
3,CGAUGAAGCCGGAUUGAGATT against 1700010H22Rik,inactive: -0.0388
4,GGAAUAAGGAAGUAAAGAUTT against Olfr958,inactive: -1.18
5,GGGUUUUCACUCAAAAAAATT against Aup1,inactive: 0.127
6,GGGAUUCACUCUUCUUUAGTT against Sebox,inactive: 1.97
7,CGCGAUGGAACCAUAGUCATT against Nagpa,inactive: -1.3
8,GCCAUUCUAAGAGGGCCUCTT against Stk10,inactive: -0.0026
9,GGGAAGAGCAGAAGUCUGUTT against Myod1,inactive: -0.239
10,GCUUGGAGAUGAACUCUAATT against Olfr533,inactive: 0.514
11,GGAUGUGGUUCAGAAGGCCTT against Stab1,inactive: -0.29
12,GCCGUUACCGAUCUCUCCATT against Zfp61,inactive: -0.176
13,GGAUGCUCUCUUAAAUGGATT against Gbp6,inactive: 0.327
14,GGAAGACAACUGUUGUGGCTT against Dagla,inactive: -0.54
15,GUUUAUCCACAUUGCCUUCTT against Olfr559,inactive: 0.431
16,GCCUGUAAAGGUGGCUAAGTT against Ciao3,inactive: 1.33
17,GCGUGGGAUGCUCAUUUUATT against Xkr7,inactive: 0.16
18,GCUUAAUGAACUGUCCUCUTT against Acan,inactive: 0.0581
19,GGCUCCGGUAAAGCUAUAUTT against Cacul1,inactive: 0.489
20,GGUUCGGGUAAAUAGUUCCTT against Nemp1,inactive: 0.541
21,GCAUACAGGAUUUACCGGCTT against Higd1b,inactive: -0.647
22,GCUUCAUCCACCAUUAAUCTT against Rabgap1,inactive: 0.833
